Experimental data: the supplement of paper PMC6690932
“And” between values parts separate entries of the source, which are not always exact repeats. Equal values may be shown once. Where a name gives a salt, the structure may show the parent alone. ± gives the standard deviation of the averaged measurements. The list shows a part of the results. Many values rest on one well or one pass, so single values are uncertain.

Tested on: HeLa
Test: lysosomal-METRIQ red/green fluorescence ratio relative to DMSO (ratio to DMSO); higher = higher lysosomal activity / lysosomal biogenesis
Conditions: 10 µM; 12 h

CCC1(c2ccc(N)cc2)CCC(=O)NC1=O (stereo unspecified) [Aminoglutethimide]
lysosomal-METRIQ red/green fluorescence ratio: 1

N.N.[Cl][Pt][Cl] [Cisplatin]
lysosomal-METRIQ red/green fluorescence ratio: 0.968

C[C@H]1O[C@@H](n2cnc3c(N)ncnc32)C[C@@H]1O [2',5'-dideoxyadenosine]
lysosomal-METRIQ red/green fluorescence ratio: 1

CC[C@H]1/C=C/C=C/C[C@@H](C)[C@H](O)[C@@](C)(O)C(=O)[C@@H](C)[C@H](O)[C@@H](C)C(=O)[C@@H](C)[C@H](O)[C@@H](C)/C=C/C(=O)O[C@@H]2[C@H](C)[C@H](CC1)O[C@]1(CC[C@H](C)[C@H](C[C@@H](C)O)O1)[C@H]2C [Oligomycin]
lysosomal-METRIQ red/green fluorescence ratio: 0.84

CC[C@@]1(O)C(=O)OCc2c1cc1n(c2=O)Cc2cc3ccccc3nc2-1 [Camptothecin]
lysosomal-METRIQ red/green fluorescence ratio: 1.23

C[C@@H]1C[C@@H]([C@H](O)CC2CC(=O)NC(=O)C2)C(=O)[C@@H](C)C1 [Cycloheximide]
lysosomal-METRIQ red/green fluorescence ratio: 1.8

C#CCN(C)C(C)Cc1ccccc1 (stereo unspecified) [Deprenyl]
lysosomal-METRIQ red/green fluorescence ratio: 1.13

C[C@]12CCC(=O)C(O)=C1CC[C@@H]1[C@@H]2CC[C@]2(C)C(=O)CC[C@@H]12 [Formestane]
lysosomal-METRIQ red/green fluorescence ratio: 0.88

CN[C@@H]1C[C@H]2O[C@@](C)([C@@H]1OC)n1c3ccccc3c3c4c(c5c6ccccc6n2c5c31)C(=O)NC4 [Staurosporine]
lysosomal-METRIQ red/green fluorescence ratio: 2.07

COc1ccc2c3c([nH]c2c1)[C@H](C=C(C)C)N1C(=O)[C@@H]2CCCN2C(=O)[C@@H]1C3 [Fumitremorgin C]
lysosomal-METRIQ red/green fluorescence ratio: 1.12

CNc1ccc2oc(C[C@H]3O[C@@]4(CC[C@H]3C)O[C@H]([C@H](C)C(=O)c3ccc[nH]3)[C@H](C)C[C@H]4C)nc2c1C(=O)O
lysosomal-METRIQ red/green fluorescence ratio: 1.76

C=C(C)[C@H]1Cc2c(ccc3c2O[C@@H]2COc4cc(OC)c(OC)cc4[C@@H]2C3=O)O1 [Rotenone]
lysosomal-METRIQ red/green fluorescence ratio: 1.09

C[C@@H]1O[C@@H](O[C@H]2C[C@@H](O)[C@]3(CO)[C@H]4[C@H](O)C[C@]5(C)[C@@H](C6=CC(=O)OC6)CC[C@]5(O)[C@@H]4CC[C@]3(O)C2)[C@H](O)[C@H](O)[C@H]1O [Ouabain]
lysosomal-METRIQ red/green fluorescence ratio: 1.56

CC1=C2C(=O)[C@H]3[C@@H](CC=C4C[C@@H](O)CC[C@@]43C)[C@@H]2CC[C@]12O[C@@H]1C[C@H](C)CN[C@H]1[C@H]2C [Jervine]
lysosomal-METRIQ red/green fluorescence ratio: 1.5

COC(=O)C1(OC)CC2OC1(C)n1c3ccccc3c3c4c(c5c6ccccc6n2c5c31)C(=O)N(C)C4 (stereo unspecified)
lysosomal-METRIQ red/green fluorescence ratio: 1.04 and 1.12

O[C@H]1[C@H]2[C@H](O)CCCN2C[C@H]1O [Swainsonine]
lysosomal-METRIQ red/green fluorescence ratio: 1.04

C/C=C(/C)C(=O)O[C@H]1C(C)=C2[C@H]([C@@H]1OC(=O)CCCCCCC)[C@@](C)(OC(C)=O)C[C@H](OC(=O)CCC)[C@@]1(O)[C@H]2OC(=O)[C@@]1(C)O [Thapsigargin]
lysosomal-METRIQ red/green fluorescence ratio: 1.4

N=C(N)NN [Aminoguanidine, HCl]
lysosomal-METRIQ red/green fluorescence ratio: 1

CO/C1=C\C(C)=C\[C@@H](C)[C@@H](O)[C@@H](C)C/C(C)=C/C=C/[C@H](OC)[C@@H]([C@@H](C)[C@@H](O)[C@H](C)[C@@]2(O)C[C@@H](O)[C@H](C)[C@@H](C(C)C)O2)OC1=O [Bafilomycin A1]
lysosomal-METRIQ red/green fluorescence ratio: 0.44

COC[C@H]1OC(=O)c2coc3c2[C@@]1(C)C1=C(C3=O)[C@@H]2CCC(=O)[C@@]2(C)C[C@H]1OC(C)=O [Wortmannin]
lysosomal-METRIQ red/green fluorescence ratio: 1 ± 0.091

CC(C)(O)/C=C/C(=O)[C@](C)(O)[C@H]1[C@H](O)C[C@@]2(C)[C@@H]3CC=C4[C@@H](C=C(O)C(=O)C4(C)C)[C@]3(C)C(=O)C[C@]12C [Cucurbitacin I]
lysosomal-METRIQ red/green fluorescence ratio: 1.47
